Five compounds from patent publication US11371097B2, “Articles for diagnosis of liver fibrosis” (THE GOVERNMENT OF THE UNITED STATES, as represented by THE …, priority 2015, dated 2022) can be followed below.

Several values for one entry are separate records, joined by “and”; a condition that tells them apart may be missing. Equal entries are not always repeated.

In the data set the test system is 67 genes on the fibrosis gene panel. The data set is described as follows: Multiplexed fibrosis gene panel (QuantiGene 2.0 Plex / Bioplex) on liver RNA. Particulars: for Gapdh / Hprt1 / Ppib: housekeeping normalization gene, liver RNA, individual animals, Carbon Tetrachloride 200, Bromobenzene 785, Dexamethasone 1 mg/kg.
The mark [1] stands for this setting: 4,4′-MDA 22 mg/kg, animals 89-92.
The mark [2] stands for this setting: 4,4′-MDA 59.7 mg/kg, animals 93-96.
[3] abbreviates: 4,4′-MDA 162 mg/kg, animals 97-100.
Setting [4] is: Allyl Alcohol 9.7 mg/kg, animals 9-12.
[5] abbreviates: Allyl Alcohol 20.9 mg/kg, animals 13-16.
The mark [6] stands for this setting: Allyl Alcohol 45 mg/kg, animals 17, 18, 20.
Setting [7] is: Carbon Tetrachloride 200 mg/kg, animal 54.

Regarding `Nc1ccc(Cc2ccc(N)cc2)cc1` [4,4′-methylenedianiline], the “Gapdh (housekeeping normalization gene)” value is 2112 and 2068 and 1825.5 and 1732.5 under setting [1]; 2384 and 3133 and 2922.5 and 2508 under setting [2]; 2700.5 and 2891.3 and 2103.5 and 2272 under setting [3]. The “Hprt1 (housekeeping normalization gene)” value under setting [1] is 577.5 and 739.8 and 496.5 and 405.5; the “Hprt1 (housekeeping normalization gene)” value under setting [2] was 1089.8 and 1052.3 and 1451 and 2073.5; the “Hprt1 (housekeeping normalization gene)” value under setting [3] was 2119.3 and 2624 and 1897.8 and 2070.5. Also, the “Ppib (housekeeping normalization gene)” value is 1429.5 and 1416.3 and 1158 and 1094.3 under setting [1]; 1414.8 and 1548.8 and 1852 and 1909.5 under setting [2]; 1795.8 and 2013.5 and 1461 and 1412.5 under setting [3].

Take allyl alcohol: the “Gapdh (housekeeping normalization gene)” value reads like this: under setting [4], 1566.3 and 1899 and 2050.3 and 1558; under setting [5], 1911.5 and 2293 and 2276 and 1773.8. In addition, the “Hprt1 (housekeeping normalization gene)” value under setting [4] is 431.3 and 482.5 and 455 and 501.3; the “Hprt1 (housekeeping normalization gene)” value under setting [5] was 593.8 and 565 and 581 and 463.5; the “Hprt1 (housekeeping normalization gene)” value under setting [6] is 547.5 and 896.8 and 740. The “Ppib (housekeeping normalization gene)” value runs as follows: under setting [4], 1091.5 and 1442.5 and 1395.5 and 1320.5; under setting [5], 1609 and 1773.5 and 1742.5 and 1158; under setting [6], 1372.8 and 2253.5 and 1995.8.

On to `C[C@@H]1C[C@H]2[C@@H]3CCC4=CC(=O)C=C[C@]4(C)[C@@]3(F)[C@@H](O)C[C@]2(C)[C@@]1(O)C(=O)CO` [dexamethasone], for which the Gapdh is 2151.5 and 1813.3 and 2471 and 3013.3; the Hprt1 was 324.3 and 278.5 and 478.5 and 537.5; the Ppib is 1332.3 and 982.3 and 1040 and 1524.8.

Consider `Brc1ccccc1` [bromobenzene], for which the Gapdh was 2931.8 and 2799.3 and 2968.3 and 2811; the Hprt1 was 1715 and 1739.5 and 1380 and 1716; the Ppib is 1675.5 and 1900 and 1655.3 and 1677.3.

For `ClC(Cl)(Cl)Cl` [carbon tetrachloride], the Gapdh was 2608 and 2613.3 and 2661.3; the Hprt1 is 735.3 and 656 and 561.5; the Ppib was 1972.8 and 1801.5 and 1853.8. Besides, under setting [7], the “Gapdh (housekeeping normalization gene)” value turned out to be 2379.5, the “Hprt1 (housekeeping normalization gene)” value came out at 569 and the “Ppib (housekeeping normalization gene)” value turned out to be 1274.8.
